The test deals with PET100-GST (human). The test is described as follows: pull-down; GST-tagged protein on GST magnetic beads incubated with His-tagged protein (1-3 ug) in 500 uL binding buffer (50 mM Tris-HCl pH 7.9, 10% glycerol, 100 mM KCl, 5 mM MgCl2, 10 mM beta-mercaptoethanol, 0.1% NP-40), 2 h at 4 °C; washed with NETN buffer; immunoblot; both purified.

Results on one molecule are retold here after article PMC11909191.

Results are given in words; binding and its absence hold for the method and conditions named. Binding calls can cover weak binding; strength is not graded here. Tags and fused reporters may be left off the sequences shown.

B1: MBP-pep-nc-ZNF436-AS1-His (peptide, UniProt Q8NC38 1-126)
chain: MLAVPVRLKVGSRKPEWGTNRLTSCPAKDPLDRRLQNLRDRERVPEPQRSLRPGVQEDSREHGQVPEVSDPQVDLEFVDLQAKPRYRRLILKTQIPEASDSQAAQKPQAHRQIPETTEAGRETTSN
In the case of B1, the binding result is reported as “binds”.
